Here are results for one molecule from patent publication US20150359816A1, “STABLE COMPOSITIONS COMPRISING HEPARINOID, ACUTE-ACTING ANESTHETIC, AND BUFFER” (URIGEN PHARMACEUTICALS, INC., priority 2014, published 2015).

The conditions of this series: 25 mL solution with 333 mg lidocaine hydrochloride.

The structures appear in SMILES notation. Counter-ions that a name gives are not always drawn.

As to `CCN(CC)CC(=O)Nc1c(C)cccc1C` [Lidocaine, lidocaine hydrochloride], the “precipitation of lidocaine / stability of solution” value is listed as “unstable with precipitation of lidocaine”.
